This is one part of the list.
Assays:
Experiment in all cases: glycan array binding signal (z-score within array); higher = stronger binding
Settings in all cases: glycan notation: IUPAC condensed, linker removed
Fuc(a1-2)Gal = molecular target: Fuc(a1-2)Gal
Procedure, shortened: (§1)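 Glycan array binding is given as a within-array Z-score, which can be read as non-binding when negative. The arrays, 3228 of them, came from the Consortium for Functional Glycomics database and were retained only where the protein sequence was available. Z-scores were averaged across arrays of the same protein sequence at different concentrations or buffers and across linkers.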

Fuc(a1-2)Gal(b1-3)GalNAc = molecular target: Fuc(a1-2)Gal(b1-3)GalNAc
Procedure, shortened: as §1

[1] = molecular target: Fuc(a1-2)Gal(b1-3)GalNAc(a1-3)[Fuc(a1-2)]Gal(b1-4)Glc
Procedure, shortened: as §1

[2] = molecular target: Fuc(a1-2)Gal(b1-3)GalNAc(a1-3)[Fuc(a1-2)]Gal(b1-4)GlcNAc
Procedure, shortened: as §1

[3] = molecular target: Fuc(a1-2)Gal(b1-3)GalNAc(b1-3)Gal
Procedure, shortened: as §1

[4] = molecular target: Fuc(a1-2)Gal(b1-3)GalNAc(b1-3)Gal(a1-4)Gal(b1-4)Glc
Procedure, shortened: as §1

[5] = molecular target: Fuc(a1-2)Gal(b1-3)GalNAc(b1-4)[Neu5Ac(a2-3)]Gal(b1-4)Glc
Procedure, shortened: as §1

Fuc(a1-2)Gal(b1-3)GlcNAc = molecular target: Fuc(a1-2)Gal(b1-3)GlcNAc
Procedure, shortened: as §1

[6] = molecular target: Fuc(a1-2)Gal(b1-3)GlcNAc(b1-2)Man(a1-3)[Fuc(a1-2)Gal(b1-3)GlcNAc(b1-2)Man(a1-6)]Man(b1-4)GlcNAc(b1-4)GlcNAc
Procedure, shortened: as §1

[7] = molecular target: Fuc(a1-2)Gal(b1-3)GlcNAc(b1-2)Man(a1-3)[Fuc(a1-2)Gal(b1-3)GlcNAc(b1-2)Man(a1-6)]Man(b1-4)GlcNAc(b1-4)[Fuc(a1-6)]GlcNAc
Procedure, shortened: as §1

[8] = molecular target: Fuc(a1-2)Gal(b1-3)GlcNAc(b1-3)Gal(b1-4)Glc
Procedure, shortened: as §1

[9] = molecular target: Fuc(a1-2)Gal(b1-3)GlcNAc(b1-3)GalNAc
Procedure, shortened: as §1

[10] = molecular target: Fuc(a1-2)Gal(b1-3)GlcNAc(b1-3)[Fuc(a1-2)Gal(b1-3)GlcNAc(b1-6)]GalNAc
Procedure, shortened: as §1

[11] = molecular target: Fuc(a1-2)Gal(b1-3)GlcNAc(b1-3)[Gal(b1-4)GlcNAc(b1-6)]Gal(b1-4)Glc
Procedure, shortened: as §1

[12] = molecular target: Fuc(a1-2)Gal(b1-3)GlcNAc(b1-3)[Neu5Ac(a2-6)Gal(b1-4)GlcNAc(b1-6)]Gal(b1-4)Glc
Procedure, shortened: as §1

[13] = molecular target: Fuc(a1-2)Gal(b1-3)GlcNAc6S
Procedure, shortened: as §1

[14] = molecular target: Fuc(a1-2)Gal(b1-3)[Fuc(a1-4)]GlcNAc
Procedure, shortened: as §1

[15] = molecular target: Fuc(a1-2)Gal(b1-3)[Fuc(a1-4)]GlcNAc(b1-2)Man(a1-3)[Fuc(a1-2)Gal(b1-3)[Fuc(a1-4)]GlcNAc(b1-2)Man(a1-3)]Man(b1-4)GlcNAc(b1-4)GlcNAc
Procedure, shortened: as §1

[16] = molecular target: Fuc(a1-2)Gal(b1-3)[Fuc(a1-4)]GlcNAc(b1-2)Man(a1-3)[Fuc(a1-2)Gal(b1-3)[Fuc(a1-4)]GlcNAc(b1-2)Man(a1-6)]Man(b1-4)GlcNAc(b1-4)[Fuc(a1-6)]GlcNAc(b1-4)[Fuc(a1-6)]GlcNAc
Procedure, shortened: as §1

[17] = molecular target: Fuc(a1-2)Gal(b1-3)[Fuc(a1-4)]GlcNAc(b1-3)[Fuc(a1-3)[Gal(b1-4)]GlcNAc(b1-6)]Gal(b1-4)Glc
Procedure, shortened: as §1

[18] = molecular target: Fuc(a1-2)Gal(b1-3)[Fuc(a1-4)]GlcNAc(b1-3)[Gal(b1-4)GlcNAc(b1-6)]Gal(b1-4)Glc
Procedure, shortened: as §1

Fuc(a1-2)Gal(b1-4)Glc = molecular target: Fuc(a1-2)Gal(b1-4)Glc
Procedure, shortened: as §1

Fuc(a1-2)Gal(b1-4)Glc6S = molecular target: Fuc(a1-2)Gal(b1-4)Glc6S
Procedure, shortened: as §1

Fuc(a1-2)Gal(b1-4)GlcNAc = molecular target: Fuc(a1-2)Gal(b1-4)GlcNAc
Procedure, shortened: as §1

[19] = molecular target: Fuc(a1-2)Gal(b1-4)GlcNAc(b1-2)Man
Procedure, shortened: as §1

[20] = molecular target: Fuc(a1-2)Gal(b1-4)GlcNAc(b1-2)Man(a1-3)[Fuc(a1-2)Gal(b1-4)GlcNAc(b1-2)Man(a1-6)]Man(b1-4)GlcNAc(b1-4)GlcNAc
Procedure, shortened: as §1

[21] = molecular target: Fuc(a1-2)Gal(b1-4)GlcNAc(b1-2)Man(a1-3)[Fuc(a1-2)Gal(b1-4)GlcNAc(b1-2)Man(a1-6)]Man(b1-4)GlcNAc(b1-4)[Fuc(a1-6)]GlcNAc
Procedure, shortened: as §1

[22] = molecular target: Fuc(a1-2)Gal(b1-4)GlcNAc(b1-2)[Fuc(a1-2)Gal(b1-4)GlcNAc(b1-4)]Man(a1-3)[Fuc(a1-2)Gal(b1-4)GlcNAc(b1-2)Man(a1-6)]Man(b1-4)GlcNAc(b1-4)GlcNAc
Procedure, shortened: as §1

[23] = molecular target: Fuc(a1-2)Gal(b1-4)GlcNAc(b1-3)Gal(b1-4)GlcNAc
Procedure, shortened: as §1

[24] = molecular target: Fuc(a1-2)Gal(b1-4)GlcNAc(b1-3)Gal(b1-4)GlcNAc(b1-2)Man(a1-3)[Fuc(a1-2)Gal(b1-4)GlcNAc(b1-3)Gal(b1-4)GlcNAc(b1-2)Man(a1-6)]Man(b1-4)GlcNAc(b1-4)GlcNAc
Procedure, shortened: as §1

B1: Wzz (Escherichia coli) (protein)
chain: MRTWKFPSVRVMMRVENNNVSGQNHDPEQIDLIDLLVQLWRGKMTIIISVIVAIVLAIGYLAVAKEKWTSTAIITQPDVGQIAGYNNAMNVIYGQAAPKVSDLQETLIGRFSSAFSALAETLDNQEEPEKLTIEPSVKNQQLPLTVSYVGQTAEGAQMKLAQYIQQVDDKVNQELEKDLKDNIALGRKNLQDSLRTQEVVAQEQKDLRIRQIQEALQYANQAQVTKPQIQQTGEDITQDTLFLLGSEALESMIKHEATRPLVFSSNYYQTRQNLLDIDNLDVDKLDIHAYLYVMKPTLPIRRDSPKKAITLILAVLLGGMVGAGIVLGRNALRNYNAK
Q: With B1 as the binder, how does the “glycan array binding signal (z-score)” value (Fuc(a1-2)Gal) read?
A: -0.122

Q: And the “glycan array binding signal (z-score)” value (Fuc(a1-2)Gal(b1-3)GalNAc)?
A: -0.619

Q: What about the “glycan array binding signal (z-score)” value [1] of the same binder?
A: 0.119

Q: And the “glycan array binding signal (z-score)” value [2]?
A: 0.216

Q: And the “glycan array binding signal (z-score)” value [3]?
A: -0.012

Q: And the “glycan array binding signal (z-score)” value [4]?
A: -0.013

Q: What about the “glycan array binding signal (z-score)” value [5] of the same binder?
A: -0.278

Q: What about the “glycan array binding signal (z-score)” value (Fuc(a1-2)Gal(b1-3)GlcNAc) of the same binder?
A: -0.154

Q: And the “glycan array binding signal (z-score)” value [6]?
A: 0.134

Q: And the “glycan array binding signal (z-score)” value [7]?
A: -0.072

Q: What about the “glycan array binding signal (z-score)” value [8] of the same binder?
A: 0.077

Q: What about the “glycan array binding signal (z-score)” value [9] of the same binder?
A: -0.55

Q: What about the “glycan array binding signal (z-score)” value [10] of the same binder?
A: -0.621

Q: And the “glycan array binding signal (z-score)” value [11]?
A: -0.335

Q: And the “glycan array binding signal (z-score)” value [12]?
A: -1.06

Q: And the “glycan array binding signal (z-score)” value [13]?
A: -0.211

Q: What about the “glycan array binding signal (z-score)” value [14] of the same binder?
A: -0.692

Q: And the “glycan array binding signal (z-score)” value [15]?
A: 0.002

Q: And the “glycan array binding signal (z-score)” value [16]?
A: -0.552

Q: What about the “glycan array binding signal (z-score)” value [17] of the same binder?
A: -0.369

Q: And the “glycan array binding signal (z-score)” value [18]?
A: -0.77

Q: What about the “glycan array binding signal (z-score)” value (Fuc(a1-2)Gal(b1-4)Glc) of the same binder?
A: -0.027

Q: What about the “glycan array binding signal (z-score)” value (Fuc(a1-2)Gal(b1-4)Glc6S) of the same binder?
A: -0.088

Q: And the “glycan array binding signal (z-score)” value (Fuc(a1-2)Gal(b1-4)GlcNAc)?
A: -0.345

Q: And the “glycan array binding signal (z-score)” value [19]?
A: 0.3

Q: What about the “glycan array binding signal (z-score)” value [20] of the same binder?
A: 0.027

Q: What about the “glycan array binding signal (z-score)” value [21] of the same binder?
A: -0.64

Q: What about the “glycan array binding signal (z-score)” value [22] of the same binder?
A: -0.244

Q: What about the “glycan array binding signal (z-score)” value [23] of the same binder?
A: -0.868

Q: What about the “glycan array binding signal (z-score)” value [24] of the same binder?
A: -0.586

Reference: the supplement of paper PMC8728848
